No constants are given. Whether binding was seen depends on the method and setting. For some of these results: A result given as binding can be weak or reduced; the word gives no strength.

Sequences of proteins named here, by UniProt entry; tags and fusion partners are left off. A change or cut given only in a name is not applied to a line headed by its entry.
UniProt O95477: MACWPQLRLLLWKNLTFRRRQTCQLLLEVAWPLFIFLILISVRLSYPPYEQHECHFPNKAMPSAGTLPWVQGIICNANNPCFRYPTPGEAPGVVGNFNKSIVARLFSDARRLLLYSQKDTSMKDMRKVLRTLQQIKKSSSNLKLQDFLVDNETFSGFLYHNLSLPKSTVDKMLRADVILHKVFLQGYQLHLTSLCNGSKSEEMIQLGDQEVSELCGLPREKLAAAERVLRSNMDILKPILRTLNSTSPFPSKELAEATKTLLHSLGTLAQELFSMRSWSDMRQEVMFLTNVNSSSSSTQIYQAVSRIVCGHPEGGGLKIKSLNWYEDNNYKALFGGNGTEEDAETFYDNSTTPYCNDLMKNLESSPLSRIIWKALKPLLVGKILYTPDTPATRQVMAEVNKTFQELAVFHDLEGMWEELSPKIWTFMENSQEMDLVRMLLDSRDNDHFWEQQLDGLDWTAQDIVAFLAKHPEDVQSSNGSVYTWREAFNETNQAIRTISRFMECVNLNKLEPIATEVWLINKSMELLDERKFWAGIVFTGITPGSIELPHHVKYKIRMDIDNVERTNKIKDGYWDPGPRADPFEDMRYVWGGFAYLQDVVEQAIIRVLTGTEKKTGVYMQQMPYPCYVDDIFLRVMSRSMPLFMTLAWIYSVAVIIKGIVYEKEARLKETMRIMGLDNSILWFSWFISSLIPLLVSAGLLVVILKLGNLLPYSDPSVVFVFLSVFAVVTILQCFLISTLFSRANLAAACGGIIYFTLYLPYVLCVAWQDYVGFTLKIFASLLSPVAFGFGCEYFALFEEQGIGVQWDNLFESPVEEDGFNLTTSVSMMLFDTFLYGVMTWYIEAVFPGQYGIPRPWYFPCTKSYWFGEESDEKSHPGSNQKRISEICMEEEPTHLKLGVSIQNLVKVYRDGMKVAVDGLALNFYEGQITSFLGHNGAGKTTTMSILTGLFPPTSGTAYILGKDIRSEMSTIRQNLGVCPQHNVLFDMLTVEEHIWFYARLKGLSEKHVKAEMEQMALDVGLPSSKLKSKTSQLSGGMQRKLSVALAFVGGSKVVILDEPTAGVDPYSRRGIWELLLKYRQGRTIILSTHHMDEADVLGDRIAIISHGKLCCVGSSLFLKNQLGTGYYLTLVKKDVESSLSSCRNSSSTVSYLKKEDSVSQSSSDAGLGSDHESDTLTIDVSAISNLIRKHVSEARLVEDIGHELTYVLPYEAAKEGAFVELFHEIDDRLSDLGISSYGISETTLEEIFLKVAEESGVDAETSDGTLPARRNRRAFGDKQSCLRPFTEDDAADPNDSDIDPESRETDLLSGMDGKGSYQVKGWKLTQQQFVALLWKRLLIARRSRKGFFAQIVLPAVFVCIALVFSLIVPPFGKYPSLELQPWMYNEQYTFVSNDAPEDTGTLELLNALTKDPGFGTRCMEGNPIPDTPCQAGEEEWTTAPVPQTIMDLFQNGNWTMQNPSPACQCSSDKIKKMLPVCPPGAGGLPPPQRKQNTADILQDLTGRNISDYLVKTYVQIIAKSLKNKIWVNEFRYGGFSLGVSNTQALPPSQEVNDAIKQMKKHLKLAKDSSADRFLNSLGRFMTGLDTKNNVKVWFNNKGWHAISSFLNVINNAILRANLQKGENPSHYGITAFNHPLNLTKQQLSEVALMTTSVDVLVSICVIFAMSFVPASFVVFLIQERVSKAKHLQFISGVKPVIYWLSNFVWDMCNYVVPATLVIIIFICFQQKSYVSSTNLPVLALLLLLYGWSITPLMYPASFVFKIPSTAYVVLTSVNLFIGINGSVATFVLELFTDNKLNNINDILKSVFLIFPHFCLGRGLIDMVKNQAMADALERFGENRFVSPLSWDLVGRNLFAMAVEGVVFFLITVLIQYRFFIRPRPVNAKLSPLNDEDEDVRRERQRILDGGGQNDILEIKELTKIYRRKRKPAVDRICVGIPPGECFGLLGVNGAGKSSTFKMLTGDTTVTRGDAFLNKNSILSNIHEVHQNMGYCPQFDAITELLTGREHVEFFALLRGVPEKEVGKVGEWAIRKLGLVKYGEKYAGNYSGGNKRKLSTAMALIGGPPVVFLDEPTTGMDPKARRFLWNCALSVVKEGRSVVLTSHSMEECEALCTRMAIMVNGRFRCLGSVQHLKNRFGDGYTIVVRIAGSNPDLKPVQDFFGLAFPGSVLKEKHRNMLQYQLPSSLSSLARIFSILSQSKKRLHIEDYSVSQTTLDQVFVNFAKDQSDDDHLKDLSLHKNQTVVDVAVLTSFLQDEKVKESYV
UniProt P02647: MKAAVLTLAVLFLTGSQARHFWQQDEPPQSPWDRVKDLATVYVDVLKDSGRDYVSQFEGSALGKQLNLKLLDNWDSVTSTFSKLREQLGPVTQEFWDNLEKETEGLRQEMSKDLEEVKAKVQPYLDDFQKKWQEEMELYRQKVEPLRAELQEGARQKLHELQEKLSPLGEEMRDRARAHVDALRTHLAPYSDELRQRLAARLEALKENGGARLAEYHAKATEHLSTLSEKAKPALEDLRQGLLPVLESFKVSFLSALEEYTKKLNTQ

Experiment [1] addresses ATP-binding cassette transporter A1 (human ABCA1), expressed on CHO cells (human) (UniProt O95477). Put plainly: flow cytometry on cells; ABCA1-CHO cells; no compound or IMB2026791 for 1 h at 37 °C, then 30 μg/mL apoA-I with the compound for 1 h at 4 °C; washed, mildly trypsinised, fixed; rabbit anti-apoA-I and anti-rabbit IgG-PE; 10,000 cells per sample; only the binder purified. For orientation: Flow cytometry measures light scatter and fluorescence of single cells or particles in a stream.

Experiment [2] has the same target. Put plainly: binding to cells, cell-bound apoA-I detected by western blot of the lysate; ABCA1-CHO cells; no compound or 50 μM IMB2026791 for 2 h at 37 °C, then 20 μg/mL apoA-I with the compound for 2 h at 4 °C; washed twice with ice-cold PBS, lysed, 30 μg protein per lane, blot with anti-apoA-I, normalised to β-actin; only the binder purified. (In general: In western blotting, separated proteins are transferred to a membrane and probed.)

Experiment [3] has the same target. Put plainly: ELISA; cell-based-ELISA-like assay, 96-well; stable ABCA1-CHO cells, 40,000 cells/well; compounds (DMSO, glibenclamide, IMB2026791) 1 h at 37 °C, then 10 μg/mL apoA-I with compounds 1 h at 4 °C in DMEM with 0.2% BSA; washed, fixed with 4% paraformaldehyde; anti-apoA-I antibody, HRP second antibody, absorbance at 450 nm; signal without apoA-I subtracted; only the binder purified. A general note: An ELISA detects its analyte on a solid surface through an enzyme-linked reagent.

Experiment [4] shares this target. Put plainly: binding to cells, cell-bound apoA-I detected by western blot of the lysate; as a3, but ABCA1-CHO cells treated with 100 μM glibenclamide for 2 h at 37 °C, then 20 μg/mL apoA-I with glibenclamide for 2 h at 4 °C; only the binder purified.

In the case of “Human apolipoprotein A-I (from UniProt P02647) (ligand)”, the binding result is listed as “binds” in experiment [1], “binds” in experiment [2], “binds” in experiment [3] and “no binding (only with 100 μM glibenclamide)” in experiment [4].
